Assay: in vivo
Details: Sprague-Dawley, rat, plasma, po, 10 mg/kg

AUC: 208 µg·h/mL
Compound: COc1ccc2cc([C@H](C)C(=O)O)ccc2c1 [NAPROXEN]

Reference: ChEMBL document CHEMBL3352635, “Gastric-sparing nitric oxide-releasable 'true' prodrugs of aspirin and naproxen” (Bioorg Med Chem Lett, 2014)
